Measured values published in PubChem BioAssay AID1347423 (Functional Genomics Laboratory (NCATS/FGL), 2020).
The campaign covered roughly 52,000 sequences. About 210 (0.4%) were called active.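 How the source made its calls: active means gene whose silencing raises cell survival under the drug, median off-target-corrected z-score across its silencing RNAs 2 or more; inactive means the rest.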 This is one part of the list.

assay: Resistance to Poly (ADP-Ribose) Polymerase inhibitor: Gene Identification via Genome-wide siRNA Screen; conditions: mouse BRCA2 R2336H ES cells, olaparib, CellTiter-Glo viability; stronger effect = higher value
Procedure, shortened: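 Genome-wide siRNA screen (3 siRNAs/gene, 20 nM) in mouse ES cells carrying hypomorphic BRCA2 R2336H; olaparib 500 nM added 48 h post-transfection, CellTiter-Glo viability 72 h later. Normalized to plate-median negative control; MAD z-scores, gene median, seed-adjusted.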

Sequence | z-score
CCUGAGAUUGGCAAUAUAGTT against G430022H21Rik | inactive: 0.0993
GGCAUUCAGAUGACAAUGGTT against C1galt1 | inactive: 1.33
GCAUACAAGACCGUGAUCATT against Psmc4 | inactive: -3.1
CGAGUUGAAAUGUUGGCAATT against AV071179 | inactive: -0.608
GGAUCAGCUGUUGCCAGAGTT against C130073D16Rik | inactive: -1.48
CCACUCUUACCAAGAAGAGTT against Mog | inactive: -0.111
GGAGAUUGAAGAGCUCCGATT against Cabp1 | inactive: -0.563
CGAAAAGGCAAAGUAUGAATT against 1700001F22Rik | inactive: -0.319
GGAGCAAAUCUUCUGUGUATT against Cdc42ep1 | inactive: -1.25
GCAUCUCAAGACGAUGGAUTT against Akap8l | inactive: 0.941
GGUAUUCCCUAUGCUUCUCTT against Gpm6a | inactive: -0.0423
GCUUUAAAACAUAUGCCUGTT against Mip | inactive: 0.818
GCCAUUUCUUACACCUAUATT against Olfr484 | inactive: -1.36
GGUCUUCCUUUUGGUCUUCTT against Olfr1240 | inactive: 0.515
GGCACAGCGGGUGAUCAAATT against 1810019A08Rik | inactive: -0.828
GCACCUCUCCCUACGAUUATT against Cxcr3 | inactive: 1.01
GGCUUUGAUUAUGUUCCCATT against Fcer2a | inactive: 2
GCUACCAUGCCCUAUGUAGTT against Slc6a3 | inactive: -0.289
GAUGUGUUAACUACACCGATT against Pyy | inactive: 0.521
GGAGGAACCUGAAGAUCUGTT against Bcl2l11 | inactive: -0.922
CCAUAACAGACCAGAUUCGTT against Gtf2h4 | inactive: 0.567
CCCAGAGAUAAAGACGGGCTT against B4galt1 | inactive: 0.28
GGGCUUUAUACCCUACGAATT against Ceacam13 | inactive: -0.00689
GGAGUCUGAUCAAUGGAAUTT against Hsd17b13 | inactive: 0.502
GGAGAGAGUGACCUUAAAUTT against Olfr818 | inactive: -0.0207
GGCCUCUGAGGACAAGUUUTT against BC022645 | inactive: -0.77
GAGAGAGAGAGAAAAUCUGTT against Klra1 | inactive: -0.426
GCCGAGUUUACUUGUUUGATT against 4932702D22Rik | inactive: 0.874

2 consecutive entries from above, for reference:
Sequence | z-score
GGUCUUCCUUUUGGUCUUCTT against Olfr1240 | inactive: 0.515
GGCACAGCGGGUGAUCAAATT against 1810019A08Rik | inactive: -0.828
